In patent publication US7981915B2, “Methods for modulating PPAR biological activity for the treatment of diseases caused by mutations in the CFTR gene” (Beth Israel Deaconess Medical Center, priority 2003, dated 2011):

Test system: bile duct injury
Assay: Dextran sodium sulfate induced bile duct injury, liver histology
Assay type: in vivo, mice

dextran sodium sulfate [DSS] was tested, and the “bile duct injury, liver histology” value (PPARα−/− mice and WT controls, 5% DSS in drinking water for 7 days) was “did not induce bile duct injury” and the “bile duct injury, liver histology” value (cftr−/− mice treated with DSS) was “periductular mononuclear cell infiltrates, some neutrophils, and bile duct proliferation”.
